## Library screen at single concentrations

The values are deposited in ChEMBL (CHEMBL3988442, “University of Dundee, Small-Polar-MMV Screening Library” (2021)).

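Assay of Toxoplasma gondii numbers, read through their beta-galactosidase reporter with a colour substrate. Tested at 50 µM. The record gives no direction; the compounds picked for IC50 retests had high values, so higher reads as fewer parasites. About 18,000 compounds were tested under these conditions; 0.94% (about 170) showed 50% or more at least once.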

Results are given as percent effect.
How 0% and 100% were set is not recorded. Most values in the screen are low, and negative values occur.
The compounds are a random part of those screened.

{"compound": "CCCN(C)S(=O)(=O)NC(=O)Cc1ccccc1F", "effect": -1.255}
{"compound": "O=C(CCc1nc(-c2ccccc2)no1)N1CCCC1", "effect": 2.204}
{"compound": "O=S1(=O)N=C(NCc2ccco2)c2ccccc21", "effect": -7.294}
{"compound": "COC(C(=O)NCCn1cncn1)c1ccccc1", "stereo": "centres undefined", "effect": 2.929}
{"compound": "O=C(c1ccccn1)N1CCC2(CCCCO2)CC1", "effect": 1.201}
{"compound": "CC(=O)c1ccc(CNc2nccnc2C#N)nc1C", "effect": -5.765}
{"compound": "CC(C)CC(C)NCc1ccc(C(N)=O)o1", "stereo": "centres undefined", "effect": -0.7264}
{"compound": "Cc1ccccc1C1(O)CCN(Cc2ncc[nH]2)C1", "stereo": "centres undefined", "effect": -4.711}
{"compound": "N#CC1COCCN1Cc1ccc2ncccc2c1", "stereo": "centres undefined", "effect": -2.312}
{"compound": "CC(=O)N(Cc1nnc(C2CC2)n1C)C1CCNC1", "stereo": "centres undefined", "effect": 4.526}
{"compound": "NC1CC(c2cc(NCCn3cc(Cl)cn3)ncn2)C1", "stereo": "centres undefined", "effect": -1.07}
{"compound": "O=C(Nc1ccn(-c2ccccc2)n1)C1CCCO1", "stereo": "centres undefined", "effect": -9.298}
{"compound": "COCCCNC(=O)C1=Cc2ccccc2OC1", "effect": -3.547}
{"compound": "Cc1nccn1CCN1CCOCC1", "effect": 3.021}
{"compound": "CCC(OC)C(=O)NC1CCN(C2CC2)CC1", "stereo": "centres undefined", "effect": -5.37}
{"compound": "Cc1noc(C)c1S(=O)(=O)N[C@@H]1CCOC[C@H]1O", "effect": -8.843}
{"compound": "Cc1ccc(F)cc1CN1C(=O)CC(C)C1=O", "stereo": "centres undefined", "effect": -2.404}
{"compound": "Cc1cc(C(=O)N2C[C@H](C3CC3)[C@@H](N)C2)ccc1O", "effect": 3.171}
{"compound": "COc1ccc(N2CCN(S(=O)(=O)CCN)CC2)cc1", "effect": -9.248}
{"compound": "Cc1noc(C)c1S(=O)(=O)N1CC(c2cccnc2)C1", "effect": -10.9}
{"compound": "COc1cc(NC(=O)c2cc(Cl)ccn2)ncn1", "effect": -5.041}
{"compound": "OC1CCN(CC2CCCCO2)CC1", "stereo": "centres undefined", "effect": 6.862}
{"compound": "CNC(=O)C1CCN(CC(O)c2ccccc2)CC1", "stereo": "centres undefined", "effect": -2.983}
{"compound": "Cc1ccc(C(=O)NCC(C)(C)N(C)C)cn1", "effect": -0.683}
{"compound": "CC(C(=O)N1CCOCC1)N1CCn2ccnc2C1", "stereo": "centres undefined", "effect": 2.997}
{"compound": "c1ccc(NCCNc2ccccn2)cc1", "effect": 13.19}
{"compound": "CC(=O)NCCCNCc1ccc(Br)c2cccnc12", "effect": -12.47}
{"compound": "CS(=O)(=O)N1CCOCC12CCC2", "effect": 3.028}
{"compound": "CC(N)c1ccccc1NS(C)(=O)=O", "stereo": "centres undefined", "effect": 4.524}
{"compound": "Cn1cc(Cl)c(C(=O)N2CCC3(CCO3)CC2)n1", "effect": -7.145}
{"compound": "CCC(C)NS(=O)(=O)c1ccc(NC(C)=O)cc1", "stereo": "centres undefined", "effect": -4.933}
{"compound": "CCCN1CCC(NC(=O)C2=NN(C)C(=O)CC2)CC1", "effect": -4.787}
{"compound": "COc1ccccc1N1CCN(CC(N)=O)CC1=O", "effect": 4.407}
{"compound": "CCn1ncnc1CN1CC(Oc2ccccc2)C1", "effect": 40.01}
{"compound": "Cc1[nH]ncc1CNCC(O)CN1CCCCC1", "stereo": "centres undefined", "effect": 15.22}
{"compound": "CC(C)(CNS(=O)(=O)c1ccccc1)NS(C)(=O)=O", "effect": -2.61}
{"compound": "O=C(NCCSCCCO)Nc1ccccn1", "effect": -25.52}
{"compound": "N[C@@H]1CCN(C(=O)CCc2ccc(F)cc2)C1", "effect": -4.33}
{"compound": "CC(C)(C)OC(=O)NCCC(=O)NC1CCOC1", "stereo": "centres undefined", "effect": 3.969}
{"compound": "Cn1cc(C(=O)Nc2ccc3[nH]nnc3c2)ccc1=O", "effect": -3.44}
{"compound": "CC(C)n1cc(NC(=O)c2cccnc2N(C)C)cn1", "effect": -0.6265}
{"compound": "COCC(N)c1ccc(Cl)cc1", "stereo": "centres undefined", "effect": -0.3246}
{"compound": "CC(C)CCOCC(=O)NC1CCc2nccn2C1", "stereo": "centres undefined", "effect": -0.3471}
{"compound": "CCOc1cccc(NC(=O)c2cnn(CC)c2)n1", "effect": -0.6985}
{"compound": "COCc1nn(Cc2ccccc2Cl)c(=O)o1", "effect": 10.13}
{"compound": "CCOC(=O)CCN(C)CCNC", "effect": 0.993}
{"compound": "COC(=O)c1sc(N)c(C#N)c1C", "effect": -3.954}
{"compound": "COCC1CCCN(CCN)C1", "stereo": "centres undefined", "effect": 6.104}
{"compound": "Cc1cnc2c(S(=O)(=O)N(C)C)cccc2c1", "effect": -5.817}
{"compound": "CSCC[C@@H](CO)NC(=O)c1cc(C(C)C)nn1C", "effect": -7.448}
{"compound": "Cn1ccc(COC(=O)CCc2ccccc2)cc1=O", "effect": 5.66}
{"compound": "NC(=O)Cc1ccc(-c2ccc(C(N)=O)c(Cl)c2)cc1", "effect": -4.393}
{"compound": "CCc1nc(Cn2ccc(C)c(C#N)c2=O)no1", "effect": 19.61}
{"compound": "CCC(CNc1ccc2nnnn2n1)N1CCCC1", "stereo": "centres undefined", "effect": -10.62}
{"compound": "CC(CCc1ccco1)NS(=O)(=O)N(C)C", "stereo": "centres undefined", "effect": -7.407}
{"compound": "CN1CCCN(C(=O)NCCCn2cccn2)CC1", "effect": -3.213}
{"compound": "COc1ccc(CSc2nnc(N)[nH]2)c(Cl)c1", "effect": 2.455}

The last 4 entries again:

- CCC(CNc1ccc2nnnn2n1)N1CCCC1 (centres undefined) | -10.62%
- CC(CCc1ccco1)NS(=O)(=O)N(C)C (centres undefined) | -7.407%
- CN1CCCN(C(=O)NCCCn2cccn2)CC1 | -3.213%
- COc1ccc(CSc2nnc(N)[nH]2)c(Cl)c1 | 2.455%